The list shows only some results of the screen, not a fair sample: it is rich in T/C values a quarter to a half above the control, in often repeated tests (any T/C) and in doses without a T/C. Other doses and runs of a compound stand elsewhere. T/C gives the treated animals as a percentage of the vehicle group. Some doses have a count of surviving animals in place of a T/C: the source files T/C as zero there, which appears to mark a toxic dose or a test without result, not a measured value. Some doses without a T/C left all or most animals alive at the check, yet need not have been tolerated: the source hardly ever lists a survival T/C far under the control, and the zero likely stands for such cases as well. Counts of survivors are from the toxicity check (mostly the fifth day) where no day follows; animals may have died later. Schedules are NCI's codes, taken here to give the interval after Q, in days (D) or hours (H), and the number of doses after X. Some schedules carry Z or #; the key to these is not given. Some molecules as drawn cover several salts, stereoisomers or complexes of the source; a dose is that of the sample tested. Some entries hold several experiments; the values are given in rising order. Where survival is the endpoint, the PubChem record calls one and a half times the control and up active, and a quarter to a half above the control has no call in these data; cut-offs in other NCI protocols can differ. Some T/C values carry the count of animals alive at the toxicity check (mostly the fifth day); without a count, all were alive then.
Tested on: L1210 leukemia ip in BDF1 mice, survival T/C
Assay: NCI In Vivo Anticancer Drug Screen. Data for tumor model L1210 Leukemia (intraperitoneal) in B6D2F1 (BDF1) mice
Details: T/C endpoint: mean survival time, higher T/C = longer survival
[1] = dose: 48.0 mg/kg/injection, schedule: Q01DX001 (ip), vehicle: other

Structure (SMILES): O=NN(CCF)C(=O)NC1CCS(=O)(=O)CC1
- T/C (dose: 1.76 mg/kg/injection, schedule: Q01DX015 (ip), vehicle: other): 135 % of control [9 of 10 alive]
- T/C (dose: 2.35 mg/kg/injection, schedule: Q02DX008 (ip), vehicle: other): 143 % of control [9 of 10 alive]
- T/C (dose: 2.5 mg/kg/injection, schedule: Q01DX001 (ip), vehicle: other): 142 % of control
- T/C (dose: 3.8 mg/kg/injection, schedule: Q## X032 (ip), vehicle: other): 140 % of control
- T/C (dose: 4.0 mg/kg/injection, schedule: Q01DX001 (ip), vehicle: other): 138 % of control
- T/C (dose: 13.0 mg/kg/injection, schedule: Q## X032 (ip), vehicle: other): 125 % of control [7 of 10 alive]
- T/C (dose: 21.0 mg/kg/injection, schedule: Q01DX001 (ip), vehicle: other, evaluated on day 46): 605 [9 of 10 alive] and 688 % of control
- T/C (dose: 21.0 mg/kg/injection, schedule: Q01DX001 (ip), vehicle: other, run until all animals had died): 346 and 361 % of control
- T/C (dose: 32.0 mg/kg/injection, schedule: Q01DX001 (ip), vehicle: other, evaluated on day 46): 490 and 588 % of control [8 of 10 alive]
- T/C (dose: 32.0 mg/kg/injection, schedule: Q01DX001 (ip), vehicle: other, run until all animals had died): 349 [5 of 6 alive] and 361 % of control [4 of 6 alive]
- T/C [1]: 275 % of control [8 of 10 alive]
- survivor count [1]: 2 of 6, 3 of 6, 6 of 10
- survivor count (dose: 60.0 mg/kg/injection, schedule: Q01DX001 (ip), vehicle: other): 2 of 10
- survivor count (dose: 60.0 mg/kg/injection, schedule: Q01DX001 (ip), vehicle: saline with Tween-80): 0 of 10 and 10 of 10
- survivor count (dose: 62.0 mg/kg/injection, schedule: Q01DX001 (ip), vehicle: other): 1 of 6
- survivor count (dose: 72.0 mg/kg/injection, schedule: Q01DX001 (ip), vehicle: other): 0 of 10
- survivor count (dose: 80.0 mg/kg/injection, schedule: Q01DX001 (ip), vehicle: other): 1 of 10
- survivor count (dose: 93.0 mg/kg/injection, schedule: Q01DX001 (ip), vehicle: other): 0 of 6
- survivor count (dose: 120.0 mg/kg/injection, schedule: Q01DX001 (ip), vehicle: other): 0 of 10
- survivor count (dose: 187.0 mg/kg/injection, schedule: Q01DX001 (ip), vehicle: other): 0 of 6
- survivor count (dose: 250.0 mg/kg/injection, schedule: Q01DX001 (ip), vehicle: other): 0 of 6
- survivor count (dose: 375.0 mg/kg/injection, schedule: Q01DX001 (ip), vehicle: other): 0 of 6
- survivor count (dose: 500.0 mg/kg/injection, schedule: Q01DX001 (ip), vehicle: other): 0 of 6

Structure (SMILES): N=C(N)N=Nc1c(O)[nH]c2ccccc12
- survivor count (dose: 300.0 mg/kg/injection, schedule: Q01DX Z (oral), vehicle: carboxymethylcellulose (CMC)): 6 of 6
- survivor count (dose: 480.0 mg/kg/injection, schedule: Q01DX Z (oral), vehicle: other): 0 of 6
- survivor count (dose: 960.0 mg/kg/injection, schedule: Q01DX Z (oral), vehicle: other): 0 of 6

Structure (SMILES): CC(C)=NNC(=O)c1ccc(N)cc1
- survivor count (dose: 400.0 mg/kg/injection, schedule: Q01DX009 (ip), vehicle: saline with Tween-80): 0 of 6

Structure (SMILES): CCN(CC)C(=S)[S][Sb]([S]C(=S)N(CC)CC)[c]1ccccc1
- survivor count (dose: 400.0 mg/kg/injection, schedule: Q01DX001 (ip), vehicle: other): 2 of 4

Structure (SMILES): CCC[CH2][Sn]1([CH2]CCC)[O]CC[S]1
- survivor count (dose: 10.0 mg/kg/injection, schedule: Q01DX001 (ip), vehicle: saline): 1 of 4
- survivor count (dose: 20.0 mg/kg/injection, schedule: Q01DX001 (ip), vehicle: saline): 0 of 4
- survivor count (dose: 40.0 mg/kg/injection, schedule: Q01DX001 (ip), vehicle: saline): 0 of 4
- survivor count (dose: 50.0 mg/kg/injection, schedule: Q01DX001 (ip), vehicle: saline): 0 of 4
- survivor count (dose: 80.0 mg/kg/injection, schedule: Q01DX001 (ip), vehicle: saline): 0 of 4
- survivor count (dose: 100.0 mg/kg/injection, schedule: Q01DX001 (ip), vehicle: saline): 0 of 4
- survivor count (dose: 200.0 mg/kg/injection, schedule: Q01DX001 (ip), vehicle: saline): 0 of 4
- survivor count (dose: 400.0 mg/kg/injection, schedule: Q01DX001 (ip), vehicle: saline): 0 of 4

Structure (SMILES): CC(CCc1ccc(O)cc1)OC=O (centres undefined)
- survivor count (dose: 500.0 mg/kg/injection, schedule: Q01DX Z (ip), vehicle: saline): 2 of 6

Structure (SMILES): Cc1n[nH]c(=S)[nH]c1=S
- survivor count (dose: 200.0 mg/kg/injection, schedule: Q04DX003 (ip), vehicle: saline with Tween-80): 2 of 6
- survivor count (dose: 400.0 mg/kg/injection, schedule: Q04DX003 (ip), vehicle: saline with Tween-80): 0 of 6

Structure (SMILES): O=N[O-].O=N[O-].[Co].[NH2-].[NH2-].[NH2-].[NH2-]
- survivor count (dose: 200.0 mg/kg/injection, schedule: Q04DX002 (ip), vehicle: saline with Tween-80): 1 of 3
- survivor count (dose: 400.0 mg/kg/injection, schedule: Q04DX002 (ip), vehicle: saline with Tween-80): 0 of 3

Structure (SMILES): O=C1CCC[C@@H]2[C@H]3CCCN4CCC[C@@H](CN12)[C@@H]34
- survivor count (dose: 300.0 mg/kg/injection, schedule: Q01DX001 (ip), vehicle: saline): 0 of 6

Structure (SMILES): CC1=Cc2ccc(C)cc2C(=O)C1=O
- survivor count (dose: 12.5 mg/kg/injection, schedule: Q04DX003 (ip), vehicle: saline with Tween-80): 3 of 6
- survivor count (dose: 25.0 mg/kg/injection, schedule: Q04DX003 (ip), vehicle: saline with Tween-80): 0 of 6

— PubChem BioAssay AID248 (DTP/NCI, 2004)
